Drawing on patent US8455223B2, “Dehydrogenases, the derivatives thereof, and method for the production of optically active alkanols” (BASF SE, priority 2005, dated 2013), this text covers optical purity for five compounds.

Data set [1] relates to ADH-3 enzyme SEQ ID NO: 2. In words: Relative activity of dehydrogenase for various substrates, with cofactor regeneration, monophasic liquid system (Example 2). Type of data set: biochemical, Candida. Conditions: value in brackets, configuration R/S printed in cell. On the procedure:
(§1) Relative activity of the dehydrogenases of the invention for various substrates (optical purity in % ee is indicated in brackets) with cofactor regeneration.
(§2) The reaction was carried out in a manner similar to example 1. Cofactor regeneration was carried out by way of addition of glucose and glucose dehydrogenase in a monophasic liquid system.

Data set [2] has as its system ADH-4 enzyme SEQ ID NO: 4. The data set is described as above. Format: biochemical, Candida. To be noted: value in brackets, configuration R/S printed in cell. On the procedure:
as §1, §2

Data set [3] has as its system ADH-3 enzyme SEQ ID NO: 2. The data set can be described thus: Relative activity of dehydrogenase for various substrates, with cofactor regeneration in the 2-phase system (Example 3). Type of data set: biochemical, Candida.
Data set [4] relates to ADH-4 enzyme SEQ ID NO: 4. The data set is described as above. Type of data set: biochemical, Candida.
The test system of data set [5] is Comparative enzyme EP 1152054 SEQ ID NO: 1. The data set can be described thus: Relative activity of dehydrogenase for various substrates, without cofactor regeneration (Example 1). Format: biochemical. To be noted: value in brackets. As for the experimental part: (§3) Relative activity of the dehydrogenases of the invention for various substrates (optical purity in % ee is indicated in brackets)
(§4) The reaction was carried out without cofactor regeneration.
(§5) 180 μl of 50 mM Kpi buffer, including 1 mM MgCl2
(§6) 200 μl of NADPH, 10 mM stock solution
(§7) 100 μl of substrate, 1 M stock solution 500 μl of hexane
(§8) The reaction mixture was incubated at 37° C. and 1000 rpm for approx. 20 hours. It was then centrifuged at 20° C., the clear supernatant was removed and analyzed by chiral gas chromatography.

For data set [6] the test system is unchanged. In words: Relative activity of dehydrogenase for various substrates, with cofactor regeneration in the 2-phase system (Example 3). Type of data set: biochemical. To be noted: two-phase (MTBE: aqueous), value in brackets, configuration R/S printed in cell.
Data set [7] deals with ADH-3 enzyme SEQ ID NO: 2. In words: Relative activity of dehydrogenase for various substrates, without cofactor regeneration (Example 1). Type of data set: biochemical, Candida. Conditions: value in brackets. On the procedure:
as §3, §4, §5, §6, §7, §8

The subject of data set [8] is ADH-4 enzyme SEQ ID NO: 4. Described as above. Type of data set: biochemical, Candida. To be noted: value in brackets. On the procedure: as §3, §4, §5, §6, §7, §8

Consider `O=C(CCl)c1ccc(F)cc1` [FCA, 4′-fluoro-2-chloro-acetophenone], for which the optical purity in data set [1] was above 99 % ee; in data set [2] it was 58 % ee; in data set [3] (ADH-3 enzyme, […], value in brackets, configuration R/S printed in cell), above 99 % ee; in data set [4] (ADH-4 enzyme, […], value in brackets, configuration R/S printed in cell), 46 % ee.
Regarding `CC(=O)c1ccccc1` [Acetophenone], the optical purity in data set [5] is above 99 % ee.
For the compound `O=C(CCl)c1ccc(Cl)cc1` [p-DICAP, 2,4′-dichloro-acetophenone], the optical purity in data set [1] was above 99 % ee; in data set [2], 44 % ee; in data set [3], 30.4 (>99% R) % ee; in data set [4], 27.6 (42% S) % ee.
In the case of 4-chloro-methoxyacetophenone [CMAP], the values for the optical purity in data set [5] and in data set [6] were 98 % ee and above 99 % ee, respectively.
For the compound `O=C(CCl)c1cccc(Cl)c1` [m-DICAP, 2,3′-dichloro-acetophenone], the optical purity in data set [5] is above 99 % ee; in data set [1], above 99 % ee; in data set [2], 25 % ee; in data set [7] it was above 99 % ee; in data set [8], 12 % ee; in data set [3], 100 (>99% R) % ee. In data set [4], the optical purity is on record as 24.6 (6% S) % ee.
